PMC11397430
These are yes or no findings as the source states them, for the method shown. Binding seen in cells or lysates may run through a third protein. These calls come from enrichment with a bait or labelling near it, and not all partners need be listed.

Amino acid sequences for entries named in this document (tags omitted).
UniProt Q96GC6: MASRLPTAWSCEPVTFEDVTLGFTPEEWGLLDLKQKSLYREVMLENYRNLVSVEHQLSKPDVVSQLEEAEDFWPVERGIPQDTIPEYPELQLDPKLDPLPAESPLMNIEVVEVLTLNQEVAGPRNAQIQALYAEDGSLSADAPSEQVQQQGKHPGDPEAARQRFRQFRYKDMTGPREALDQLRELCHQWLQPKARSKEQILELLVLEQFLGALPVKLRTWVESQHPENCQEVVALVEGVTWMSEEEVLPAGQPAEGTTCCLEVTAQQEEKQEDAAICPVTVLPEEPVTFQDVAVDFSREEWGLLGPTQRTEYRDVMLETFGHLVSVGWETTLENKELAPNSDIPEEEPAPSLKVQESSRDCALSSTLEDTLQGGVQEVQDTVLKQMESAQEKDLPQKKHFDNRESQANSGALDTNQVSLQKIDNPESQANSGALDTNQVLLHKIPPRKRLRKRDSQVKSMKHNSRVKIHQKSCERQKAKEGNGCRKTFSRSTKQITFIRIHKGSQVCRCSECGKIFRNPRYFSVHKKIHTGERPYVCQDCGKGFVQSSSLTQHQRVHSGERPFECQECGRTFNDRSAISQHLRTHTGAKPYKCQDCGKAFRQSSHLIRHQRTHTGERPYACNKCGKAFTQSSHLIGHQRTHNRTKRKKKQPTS
UniProt P17028: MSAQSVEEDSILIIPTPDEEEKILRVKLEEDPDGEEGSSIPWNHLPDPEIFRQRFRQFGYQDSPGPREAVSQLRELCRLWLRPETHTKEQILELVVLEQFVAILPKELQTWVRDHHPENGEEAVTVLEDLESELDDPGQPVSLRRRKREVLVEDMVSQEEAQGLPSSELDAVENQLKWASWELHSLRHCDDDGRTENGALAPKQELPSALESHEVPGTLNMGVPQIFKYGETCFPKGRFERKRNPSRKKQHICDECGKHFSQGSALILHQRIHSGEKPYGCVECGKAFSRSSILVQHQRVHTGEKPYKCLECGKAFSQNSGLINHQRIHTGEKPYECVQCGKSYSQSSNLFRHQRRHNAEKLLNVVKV
UniProt Q13263: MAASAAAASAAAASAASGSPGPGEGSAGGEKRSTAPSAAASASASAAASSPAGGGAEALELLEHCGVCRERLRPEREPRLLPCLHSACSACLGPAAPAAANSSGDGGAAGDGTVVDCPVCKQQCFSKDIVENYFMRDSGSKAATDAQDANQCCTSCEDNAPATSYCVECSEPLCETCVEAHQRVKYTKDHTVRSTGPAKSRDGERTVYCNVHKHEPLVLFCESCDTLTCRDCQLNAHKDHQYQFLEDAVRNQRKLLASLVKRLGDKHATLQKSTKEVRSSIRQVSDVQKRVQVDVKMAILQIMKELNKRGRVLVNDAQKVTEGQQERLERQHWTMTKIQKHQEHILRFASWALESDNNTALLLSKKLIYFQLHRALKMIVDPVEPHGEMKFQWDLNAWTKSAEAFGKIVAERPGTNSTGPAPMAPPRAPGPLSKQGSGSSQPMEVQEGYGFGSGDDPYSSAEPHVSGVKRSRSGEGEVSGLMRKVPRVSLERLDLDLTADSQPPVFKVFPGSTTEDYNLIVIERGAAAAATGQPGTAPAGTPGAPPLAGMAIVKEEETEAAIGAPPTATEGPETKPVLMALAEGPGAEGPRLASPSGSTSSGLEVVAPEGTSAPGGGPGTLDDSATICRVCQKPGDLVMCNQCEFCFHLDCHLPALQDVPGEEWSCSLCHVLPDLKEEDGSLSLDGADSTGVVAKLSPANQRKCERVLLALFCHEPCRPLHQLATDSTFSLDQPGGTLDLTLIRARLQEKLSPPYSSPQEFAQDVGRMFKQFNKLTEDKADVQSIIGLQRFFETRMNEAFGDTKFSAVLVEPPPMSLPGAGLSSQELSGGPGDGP
UniProt Q9UPN9: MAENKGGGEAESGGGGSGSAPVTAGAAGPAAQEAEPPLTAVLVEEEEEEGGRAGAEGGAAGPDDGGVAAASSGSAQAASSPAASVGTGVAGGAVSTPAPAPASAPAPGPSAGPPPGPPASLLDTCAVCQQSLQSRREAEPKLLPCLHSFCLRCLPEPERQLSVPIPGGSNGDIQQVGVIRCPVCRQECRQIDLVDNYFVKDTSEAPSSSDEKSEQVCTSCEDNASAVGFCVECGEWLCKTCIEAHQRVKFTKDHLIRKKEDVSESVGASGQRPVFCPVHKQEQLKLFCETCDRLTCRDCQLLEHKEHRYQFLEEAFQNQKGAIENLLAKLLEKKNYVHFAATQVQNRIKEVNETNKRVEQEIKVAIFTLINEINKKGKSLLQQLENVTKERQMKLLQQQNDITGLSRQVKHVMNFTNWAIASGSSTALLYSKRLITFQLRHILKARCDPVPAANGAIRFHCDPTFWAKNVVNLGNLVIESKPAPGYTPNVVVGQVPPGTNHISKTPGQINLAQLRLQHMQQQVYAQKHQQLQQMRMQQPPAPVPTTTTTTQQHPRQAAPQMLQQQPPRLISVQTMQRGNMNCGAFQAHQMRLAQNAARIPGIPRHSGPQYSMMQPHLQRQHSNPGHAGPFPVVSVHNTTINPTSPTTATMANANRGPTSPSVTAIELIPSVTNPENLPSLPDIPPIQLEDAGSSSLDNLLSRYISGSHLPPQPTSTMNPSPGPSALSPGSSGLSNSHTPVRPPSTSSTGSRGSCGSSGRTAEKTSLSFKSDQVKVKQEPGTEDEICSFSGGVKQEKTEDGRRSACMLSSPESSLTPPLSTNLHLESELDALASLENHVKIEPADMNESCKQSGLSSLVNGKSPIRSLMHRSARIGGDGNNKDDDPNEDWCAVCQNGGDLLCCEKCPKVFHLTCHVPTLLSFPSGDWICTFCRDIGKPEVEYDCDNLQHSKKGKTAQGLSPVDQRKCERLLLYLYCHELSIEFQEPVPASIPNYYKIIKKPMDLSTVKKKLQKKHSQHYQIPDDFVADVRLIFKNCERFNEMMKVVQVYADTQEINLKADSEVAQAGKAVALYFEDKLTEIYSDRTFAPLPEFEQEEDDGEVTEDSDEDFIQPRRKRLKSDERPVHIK

B1: TRIM24 (protein, UniProt O15164 1-1050)
chain: MEVAVEKAVAAAAAASAAASGGPSAAPSGENEAESRQGPDSERGGEAARLNLLDTCAVCHQNIQSRAPKLLPCLHSFCQRCLPAPQRYLMLPAPMLGSAETPPPVPAPGSPVSGSSPFATQVGVIRCPVCSQECAERHIIDNFFVKDTTEVPSSTVEKSNQVCTSCEDNAEANGFCVECVEWLCKTCIRAHQRVKFTKDHTVRQKEEVSPEAVGVTSQRPVFCPFHKKEQLKLYCETCDKLTCRDCQLLEHKEHRYQFIEEAFQNQKVIIDTLITKLMEKTKYIKFTGNQIQNRIIEVNQNQKQVEQDIKVAIFTLMVEINKKGKALLHQLESLAKDHRMKLMQQQQEVAGLSKQLEHVMHFSKWAVSSGSSTALLYSKRLITYRLRHLLRARCDASPVTNNTIQFHCDPSFWAQNIINLGSLVIEDKESQPQMPKQNPVVEQNSQPPSGLSSNQLSKFPTQISLAQLRLQHMQQQVMAQRQQVQRRPAPVGLPNPRMQGPIQQPSISHQQPPPRLINFQNHSPKPNGPVLPPHPQQLRYPPNQNIPRQAIKPNPLQMAFLAQQAIKQWQISSGQGTPSTTNSTSSTPSSPTITSAAGYDGKAFGSPMIDLSSPVGGSYNLPSLPDIDCSSTIMLDNIVRKDTNIDHGQPRPPSNRTVQSPNSSVPSPGLAGPVTMTSVHPPIRSPSASSVGSRGSSGSSSKPAGADSTHKVPVVMLEPIRIKQENSGPPENYDFPVVIVKQESDEESRPQNANYPRSILTSLLLNSSQSSTSEETVLRSDAPDSTGDQPGLHQDNSSNGKSEWLDPSQKSPLHVGETRKEDDPNEDWCAVCQNGGELLCCEKCPKVFHLSCHVPTLTNFPSGEWICTFCRDLSKPEVEYDCDAPSHNSEKKKTEGLVKLTPIDKRKCERLLLFLYCHEMSLAFQDPVPLTVPDYYKIIKNPMDLSTIKKRLQEDYSMYSKPEDFVADFRLIFQNCAEFNEPDSEVANAGIKLENYFEELLKNLYPEKRFPKPEFRNESEDNKFSDDSDDDFVQPRKKRLKSIEERQLLK

biological target: ZNF274, full length, HA-tagged (ZNF274-HA); a Flag-tagged copy was coexpressed for the co-IP (human) (UniProt Q96GC6); test: proximity labelling; ProtA-TurboID targeted with an anti-HA antibody to ZNF274-HA in fixed, permeabilized nuclei of doxycycline-induced HEK293T cells; biotinylation 10 min at 37°C; streptavidin enrichment and quantitative mass spectrometry; n = 3 replicates per condition

binding, binds:
ZNF24 (from UniProt P17028 1-368)
KAP1/TRIM28 (from UniProt Q13263 1-835)
TRIM33 (from UniProt Q9UPN9 1-1127)
B1
